Data taken from patent US6632794B1, “Insulin-like growth factor agonist molecules” (Genentech, Inc., priority 1997, dated 2003).

Tested on: human Type II diabetics
Test: Treatment of human Type II diabetics with rhIGF-I, blood IGF-I, IGF-II, IGFBP-3
Format: in vivo
Conditions: 12 weeks

Substance: IGF-I: native-sequence recombinant human insulin-like growth factor-I (Genentech)
- concentrations of IGF-I in the blood (40 and 80 μg/kg twice daily): the same total blood concentration of IGF-I was reached with these two doses
- concentrations of IGF-II in the blood (rhIGF-I twice daily): fell
- concentrations of IGFBP-3 in the blood (rhIGF-I twice daily): no statistically significant or clear pattern of change
